These are yes or no findings as the source states them, for the method shown. Some binding calls cover weakened binding; strength is not graded here.
Molecular target: plasma-derived human activated protein C (APC) (human) (UniProt P04070)
Assay: affinity comparison with the parent; SPR screen as in Example 2 (FIG. 12)

Protein sequences, listed by entry. Tags and fused reporters are not part of them. Lines headed by an entry give the natural chain unless they say otherwise; changes in a name come on top.
UniProt P04070: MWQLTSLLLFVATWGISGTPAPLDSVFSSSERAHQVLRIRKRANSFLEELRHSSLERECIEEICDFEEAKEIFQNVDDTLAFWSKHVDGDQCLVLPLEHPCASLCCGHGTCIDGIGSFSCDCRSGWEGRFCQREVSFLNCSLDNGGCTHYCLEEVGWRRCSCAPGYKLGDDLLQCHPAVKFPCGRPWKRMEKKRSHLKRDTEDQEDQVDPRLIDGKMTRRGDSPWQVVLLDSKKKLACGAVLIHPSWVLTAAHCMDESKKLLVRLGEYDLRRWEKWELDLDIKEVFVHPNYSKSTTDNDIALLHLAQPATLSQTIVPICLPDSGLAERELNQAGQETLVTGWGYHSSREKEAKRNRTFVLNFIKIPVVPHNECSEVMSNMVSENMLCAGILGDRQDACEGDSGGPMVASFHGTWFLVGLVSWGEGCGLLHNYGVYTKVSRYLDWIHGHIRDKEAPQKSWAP

B1: TPP-29853 (antibody, human IgG4 S228P, kappa, V domains shown)
VH: EVQLVESGGGLVQPGGSLRLSCAASGFTFSNYYMNWVRQAPGKGLEWVSYISSSSSTIYYADSVKGRFTISRDDSKNSLYLQMNSLKTEDTAVYYCAREGDYMDYWGQGTLVTVSS
VL: EIVLTQSPGTLSLSPGERATLSCRASQSVSSFGATFMHWYQQKPGQPPKLLIYLASNRASGVPDRFSGSGSGTDFTLKISRVEAEDVGVYYCQQNNEDPYTFGQGTKLEIKR
With B1 the binding was “binds”.

Reference: patent publication US20250188189A1
